# Results from PubChem BioAssay AID588499 (NMMLSC, 2011).
# The whole screen tested about 360,000 compounds, of which about 610 (0.17%) were called active. Inconclusive results, whose numbers are uncertain, are shown with a selection of clear calls. No stated cut-off is given here; in the data, active means inhibition above about 30%; inconclusive means no clear call, values can overlap the other calls; inactive means below that.
# Tested on: Botulinum neurotoxin type A light chain protease (Clostridium botulinum A str. ATCC 3502)
# Test: blockers of BoNT/A LC substrate cleavage – biochemical, flow cytometry, MLPCN library, primary screen (AID 588499); further: plate controls were buffer without enzyme for full effect and enzyme alone for no effect
# Settings: multiplex microsphere protease substrate cleavage, at 10 µM, hits give high values
row,Structure (SMILES),inhibition
1,COc1ccc(-c2nnc(-c3cc4c(ccc5ccccc54)oc3=O)o2)cc1,inactive: 0.1%
2,CCN(CC)c1ccc(/C=C2\CCC(/C=C(/C#N)C(=O)Nc3ccccc3F)=C2N2CCOCC2)cc1,inconclusive: 6.7%
3,Cc1cccc2c(=O)cc(C)n(CC(N)=O)c12,inconclusive: 1.3%
4,Fc1ccc2c(c1)C(c1ccc(N3CCOCC3)cc1)=NNC(c1cccs1)=N2,inconclusive: 2.7%
5,CCC(CC)NC(=O)COC(=O)c1ccc(NS(=O)(=O)c2ccc3c(c2)OCCO3)cc1,inconclusive: -2.5%
6,Cc1ccc(C(=O)N/N=C\c2ccc(-c3ccc(Cl)cc3)o2)cn1,inconclusive: -55.3%
7,CN1CCN(c2c(F)cc3c(=O)c(C(=O)O)cn4c3c2SCC4)CC1,inactive: 0.6%
8,O=C(Nc1ccccc1Br)c1ccc(N2CCCC2=O)cc1,inactive: -0.6%
9,COc1ccc(-c2csc(N(CCc3ccc(OC)c(OC)c3)C(=O)COc3ccccc3)n2)cc1,inconclusive: 0.9%
10,CCn1c(CC(=O)Nc2cccc(OC)c2)nnc1SCC(=O)Nc1nccs1,inconclusive: 0.7%
11,CCOC(=O)CC1=NN(c2ccccc2)C(=O)C1,inactive: 0%
12,O=C(OCc1ccc(Cl)c(Cl)c1)c1ccccn1,inconclusive: 8.2%
13,Cc1cc(Cl)c(S(=O)(=O)N2CCCCCC2)cc1OCC(=O)NC1CCCCC1,inconclusive: 0.4%
14,CCN1CCCC1CNC(=O)C1CCN(Cc2nc(-c3cccc(Br)c3)oc2C)CC1 (centres undefined),inactive: 1.9%
15,COc1ccc(S(=O)(=O)N(C)c2ccc(C(=O)NCCC(C)C)cc2)cc1,inconclusive: 6.8%
16,Cc1snc(SCC(=O)N/N=C(\N)COc2cccc(C(F)(F)F)c2)c1C#N,inconclusive: 0.2%
17,COC(=O)c1ccc(S(=O)(=O)N(Cc2ccccc2)Cc2ccccc2)n1C,inconclusive: -34%
18,O=C(CN1CCN(c2ccc(C(F)(F)F)cn2)CC1)NCc1ccc2c(c1)OCO2,inconclusive: -7.5%
19,COc1ccc(CNCC(O)(c2ccc(F)cc2)c2ccc(F)cc2)cc1,inactive: -0.3%
20,CCCn1c(=O)c2[nH]cnc2n(-c2ccc(Cl)cc2)c1=O,inconclusive: 9.8%
21,COc1cc2c(cc1OC)C(c1cccc(Cl)c1Cl)CC(=O)N2 (centres undefined),inconclusive: -0.3%
22,COC(=O)c1ccccc1N=Nc1c(N)n[nH]c1N,inconclusive: -25.1%
23,CC(=O)Nc1ccc(NC(=O)c2cc(C)nn2-c2ccccc2)cc1,inconclusive: -0.3%
24,COc1ccc(N2C(=O)CCC(C(=O)c3ccccc3)=C2C)cc1,inconclusive: 5.6%
